For 31 targets, log2 fold change results are on record in the supplement of paper PMC12819154, “High-throughput peptide-centric local stability assay extends protein–ligand identification to membrane proteins, tissues and bacteria” (Nature Structural & Molecular Biology, 2025).

By UniProt entry, the sequences of proteins in these tests, tags left out. Where a name states a change or a piece, a line headed by the entry shows the natural chain unless it says otherwise.
UniProt Q8C025: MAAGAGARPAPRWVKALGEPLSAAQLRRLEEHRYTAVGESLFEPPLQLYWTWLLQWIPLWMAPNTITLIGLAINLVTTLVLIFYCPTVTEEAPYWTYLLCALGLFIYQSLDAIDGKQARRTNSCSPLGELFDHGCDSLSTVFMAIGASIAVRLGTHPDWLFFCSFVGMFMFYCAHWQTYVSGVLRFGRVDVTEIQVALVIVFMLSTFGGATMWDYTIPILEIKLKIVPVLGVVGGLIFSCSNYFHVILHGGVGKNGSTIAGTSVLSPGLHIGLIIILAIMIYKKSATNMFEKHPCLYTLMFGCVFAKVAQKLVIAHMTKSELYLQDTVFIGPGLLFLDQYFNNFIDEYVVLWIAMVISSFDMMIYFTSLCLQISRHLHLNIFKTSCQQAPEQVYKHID
UniProt Q8C547: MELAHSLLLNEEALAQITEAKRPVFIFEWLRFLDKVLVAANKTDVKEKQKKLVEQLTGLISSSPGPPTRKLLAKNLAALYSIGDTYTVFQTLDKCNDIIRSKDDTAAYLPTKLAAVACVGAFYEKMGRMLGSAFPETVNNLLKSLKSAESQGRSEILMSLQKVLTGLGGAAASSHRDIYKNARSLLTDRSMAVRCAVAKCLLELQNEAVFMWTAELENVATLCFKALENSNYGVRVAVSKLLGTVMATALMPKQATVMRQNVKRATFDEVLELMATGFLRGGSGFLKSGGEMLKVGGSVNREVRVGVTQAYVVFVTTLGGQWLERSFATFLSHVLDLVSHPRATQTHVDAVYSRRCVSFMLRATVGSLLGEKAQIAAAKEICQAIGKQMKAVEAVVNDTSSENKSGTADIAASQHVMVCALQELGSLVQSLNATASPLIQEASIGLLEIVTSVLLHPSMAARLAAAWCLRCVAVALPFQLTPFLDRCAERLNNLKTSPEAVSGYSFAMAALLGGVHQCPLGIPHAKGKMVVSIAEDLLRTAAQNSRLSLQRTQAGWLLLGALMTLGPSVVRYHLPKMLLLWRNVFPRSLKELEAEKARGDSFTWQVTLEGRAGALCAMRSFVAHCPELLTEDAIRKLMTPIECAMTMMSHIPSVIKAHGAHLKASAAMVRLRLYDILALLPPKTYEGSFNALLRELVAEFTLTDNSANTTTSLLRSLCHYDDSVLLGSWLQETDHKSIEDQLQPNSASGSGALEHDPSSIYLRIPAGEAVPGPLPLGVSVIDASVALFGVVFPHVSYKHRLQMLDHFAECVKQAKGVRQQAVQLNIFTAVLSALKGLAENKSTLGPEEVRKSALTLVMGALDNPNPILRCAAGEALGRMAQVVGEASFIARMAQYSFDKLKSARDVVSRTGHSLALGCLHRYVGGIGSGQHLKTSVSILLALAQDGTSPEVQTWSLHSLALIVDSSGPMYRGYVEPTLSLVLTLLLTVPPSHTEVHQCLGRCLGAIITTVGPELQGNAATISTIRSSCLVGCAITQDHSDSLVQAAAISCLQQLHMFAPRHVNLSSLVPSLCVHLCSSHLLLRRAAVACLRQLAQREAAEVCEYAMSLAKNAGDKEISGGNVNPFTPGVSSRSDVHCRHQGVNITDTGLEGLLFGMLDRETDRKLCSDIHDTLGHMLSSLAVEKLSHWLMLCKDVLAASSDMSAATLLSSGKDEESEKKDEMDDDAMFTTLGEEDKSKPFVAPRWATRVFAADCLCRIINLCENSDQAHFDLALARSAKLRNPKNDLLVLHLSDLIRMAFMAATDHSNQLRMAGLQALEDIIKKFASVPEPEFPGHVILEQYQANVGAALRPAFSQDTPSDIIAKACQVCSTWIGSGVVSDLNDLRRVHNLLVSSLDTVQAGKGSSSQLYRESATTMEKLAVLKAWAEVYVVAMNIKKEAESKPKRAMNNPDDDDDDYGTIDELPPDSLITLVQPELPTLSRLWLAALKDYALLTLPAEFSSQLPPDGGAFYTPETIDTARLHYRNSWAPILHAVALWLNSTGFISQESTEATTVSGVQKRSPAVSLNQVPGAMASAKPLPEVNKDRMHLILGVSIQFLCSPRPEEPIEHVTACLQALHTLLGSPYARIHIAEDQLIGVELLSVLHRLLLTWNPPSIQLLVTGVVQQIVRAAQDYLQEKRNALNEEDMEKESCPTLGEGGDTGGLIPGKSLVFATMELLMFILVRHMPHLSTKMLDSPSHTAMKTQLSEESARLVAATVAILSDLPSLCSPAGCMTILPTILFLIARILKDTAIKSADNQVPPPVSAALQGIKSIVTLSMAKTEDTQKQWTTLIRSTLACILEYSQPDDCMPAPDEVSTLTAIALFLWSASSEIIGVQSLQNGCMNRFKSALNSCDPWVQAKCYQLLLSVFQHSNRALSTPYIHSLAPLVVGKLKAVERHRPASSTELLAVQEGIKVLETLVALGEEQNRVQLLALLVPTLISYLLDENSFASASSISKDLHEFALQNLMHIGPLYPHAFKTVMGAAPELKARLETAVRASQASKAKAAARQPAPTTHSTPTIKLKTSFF
UniProt Q8C6S9: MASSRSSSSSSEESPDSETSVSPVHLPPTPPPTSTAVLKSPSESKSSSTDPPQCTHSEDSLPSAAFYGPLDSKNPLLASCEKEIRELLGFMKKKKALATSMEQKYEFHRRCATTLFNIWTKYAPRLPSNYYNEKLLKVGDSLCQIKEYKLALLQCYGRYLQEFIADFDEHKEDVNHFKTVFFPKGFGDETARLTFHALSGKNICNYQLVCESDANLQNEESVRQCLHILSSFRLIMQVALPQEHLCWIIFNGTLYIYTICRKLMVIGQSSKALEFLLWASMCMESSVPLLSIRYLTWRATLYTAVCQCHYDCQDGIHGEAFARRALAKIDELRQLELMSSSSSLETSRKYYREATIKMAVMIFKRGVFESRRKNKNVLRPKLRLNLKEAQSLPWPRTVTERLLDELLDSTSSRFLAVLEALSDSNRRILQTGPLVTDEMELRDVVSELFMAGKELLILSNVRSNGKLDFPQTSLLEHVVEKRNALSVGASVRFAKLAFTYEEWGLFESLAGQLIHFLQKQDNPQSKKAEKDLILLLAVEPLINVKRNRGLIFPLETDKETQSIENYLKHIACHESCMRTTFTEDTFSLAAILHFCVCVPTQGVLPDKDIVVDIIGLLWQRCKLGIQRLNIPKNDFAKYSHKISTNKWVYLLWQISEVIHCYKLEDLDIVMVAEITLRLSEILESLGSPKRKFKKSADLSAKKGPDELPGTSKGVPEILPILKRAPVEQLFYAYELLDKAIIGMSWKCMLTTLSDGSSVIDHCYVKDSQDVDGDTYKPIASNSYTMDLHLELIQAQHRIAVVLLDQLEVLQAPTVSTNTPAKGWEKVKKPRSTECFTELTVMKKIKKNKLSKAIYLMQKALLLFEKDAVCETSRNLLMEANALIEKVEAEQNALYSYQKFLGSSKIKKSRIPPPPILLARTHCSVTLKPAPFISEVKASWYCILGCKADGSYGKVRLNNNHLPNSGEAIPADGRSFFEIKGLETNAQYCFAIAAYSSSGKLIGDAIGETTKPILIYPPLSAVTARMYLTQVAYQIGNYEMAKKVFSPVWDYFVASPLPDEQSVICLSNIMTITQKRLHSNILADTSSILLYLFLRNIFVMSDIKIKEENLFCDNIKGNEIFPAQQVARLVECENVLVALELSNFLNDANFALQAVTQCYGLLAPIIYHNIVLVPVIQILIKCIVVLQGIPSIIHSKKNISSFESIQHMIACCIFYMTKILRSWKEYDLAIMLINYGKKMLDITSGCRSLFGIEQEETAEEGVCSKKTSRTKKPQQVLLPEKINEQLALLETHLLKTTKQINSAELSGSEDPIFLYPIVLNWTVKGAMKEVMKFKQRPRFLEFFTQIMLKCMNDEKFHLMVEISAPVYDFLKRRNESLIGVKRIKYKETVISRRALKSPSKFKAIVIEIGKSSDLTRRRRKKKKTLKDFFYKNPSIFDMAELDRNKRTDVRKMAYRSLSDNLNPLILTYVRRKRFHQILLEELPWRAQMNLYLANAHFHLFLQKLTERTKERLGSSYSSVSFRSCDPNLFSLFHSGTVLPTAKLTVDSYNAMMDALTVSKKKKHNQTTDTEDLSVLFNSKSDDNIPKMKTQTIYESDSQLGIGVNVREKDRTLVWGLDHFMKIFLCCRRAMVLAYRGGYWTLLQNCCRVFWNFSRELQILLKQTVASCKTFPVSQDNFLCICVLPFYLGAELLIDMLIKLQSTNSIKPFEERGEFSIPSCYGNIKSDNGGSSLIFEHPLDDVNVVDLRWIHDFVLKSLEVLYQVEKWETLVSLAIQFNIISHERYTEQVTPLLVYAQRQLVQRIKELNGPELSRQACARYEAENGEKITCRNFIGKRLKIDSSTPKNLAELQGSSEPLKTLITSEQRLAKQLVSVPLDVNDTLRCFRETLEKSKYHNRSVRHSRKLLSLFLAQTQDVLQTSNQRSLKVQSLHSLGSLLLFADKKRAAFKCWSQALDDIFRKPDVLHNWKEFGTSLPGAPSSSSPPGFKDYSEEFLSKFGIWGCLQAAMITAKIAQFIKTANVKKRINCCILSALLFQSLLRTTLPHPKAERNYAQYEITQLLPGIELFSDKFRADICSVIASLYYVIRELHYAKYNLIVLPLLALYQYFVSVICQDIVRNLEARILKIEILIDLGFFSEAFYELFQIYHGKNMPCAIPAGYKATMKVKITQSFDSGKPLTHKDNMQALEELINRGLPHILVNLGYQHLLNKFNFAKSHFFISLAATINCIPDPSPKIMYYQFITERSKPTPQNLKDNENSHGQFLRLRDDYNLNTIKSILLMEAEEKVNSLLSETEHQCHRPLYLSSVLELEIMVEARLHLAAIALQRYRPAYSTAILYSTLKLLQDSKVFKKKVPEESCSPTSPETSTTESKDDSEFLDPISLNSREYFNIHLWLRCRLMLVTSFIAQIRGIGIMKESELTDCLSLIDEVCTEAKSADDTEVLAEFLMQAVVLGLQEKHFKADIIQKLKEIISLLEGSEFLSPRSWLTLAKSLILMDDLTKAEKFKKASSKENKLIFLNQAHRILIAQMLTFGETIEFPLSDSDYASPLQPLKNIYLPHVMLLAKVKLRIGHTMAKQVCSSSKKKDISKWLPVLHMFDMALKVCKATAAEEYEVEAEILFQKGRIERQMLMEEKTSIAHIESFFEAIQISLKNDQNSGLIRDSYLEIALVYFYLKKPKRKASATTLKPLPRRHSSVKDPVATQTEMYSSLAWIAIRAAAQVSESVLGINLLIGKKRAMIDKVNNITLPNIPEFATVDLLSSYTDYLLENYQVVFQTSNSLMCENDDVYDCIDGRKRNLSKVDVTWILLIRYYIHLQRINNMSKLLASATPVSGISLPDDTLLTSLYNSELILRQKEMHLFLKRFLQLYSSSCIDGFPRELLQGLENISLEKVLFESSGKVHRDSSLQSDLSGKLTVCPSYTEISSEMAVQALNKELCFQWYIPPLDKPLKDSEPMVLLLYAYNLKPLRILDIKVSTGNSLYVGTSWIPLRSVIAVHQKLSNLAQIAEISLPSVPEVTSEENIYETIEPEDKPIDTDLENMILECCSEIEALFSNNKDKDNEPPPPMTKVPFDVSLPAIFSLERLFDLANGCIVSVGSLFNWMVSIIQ
UniProt Q8C561: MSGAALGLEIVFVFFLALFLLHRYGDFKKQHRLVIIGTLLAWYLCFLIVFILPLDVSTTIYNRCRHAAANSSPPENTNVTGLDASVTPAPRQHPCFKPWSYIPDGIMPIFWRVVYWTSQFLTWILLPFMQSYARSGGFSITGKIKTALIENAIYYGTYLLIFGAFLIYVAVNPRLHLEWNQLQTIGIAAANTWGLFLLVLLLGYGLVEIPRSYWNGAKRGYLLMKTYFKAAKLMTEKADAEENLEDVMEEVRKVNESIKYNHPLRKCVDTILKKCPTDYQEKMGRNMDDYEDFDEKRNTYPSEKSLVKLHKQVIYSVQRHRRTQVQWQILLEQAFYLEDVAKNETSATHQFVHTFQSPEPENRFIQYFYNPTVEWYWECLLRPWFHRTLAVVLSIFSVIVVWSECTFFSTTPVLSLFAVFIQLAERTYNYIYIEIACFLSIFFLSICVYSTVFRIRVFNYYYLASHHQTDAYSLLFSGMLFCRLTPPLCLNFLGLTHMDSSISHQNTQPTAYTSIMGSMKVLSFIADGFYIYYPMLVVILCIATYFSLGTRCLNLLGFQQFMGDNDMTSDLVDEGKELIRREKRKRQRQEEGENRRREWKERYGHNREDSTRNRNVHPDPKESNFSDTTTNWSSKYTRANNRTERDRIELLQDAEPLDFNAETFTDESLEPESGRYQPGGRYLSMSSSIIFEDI
UniProt Q8C3X2: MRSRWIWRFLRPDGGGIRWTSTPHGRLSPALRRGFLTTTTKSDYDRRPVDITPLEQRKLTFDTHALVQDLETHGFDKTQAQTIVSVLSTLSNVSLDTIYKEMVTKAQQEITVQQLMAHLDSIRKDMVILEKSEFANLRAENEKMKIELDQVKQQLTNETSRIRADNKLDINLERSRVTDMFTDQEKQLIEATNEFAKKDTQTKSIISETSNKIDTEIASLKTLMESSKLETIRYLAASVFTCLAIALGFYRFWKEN

The list shows a part of the results. Most entries show no effect beyond the scatter of the controls.

Compound in the assay: CN[C@@H]1C[C@H]2O[C@@](C)([C@@H]1OC)n1c3ccccc3c3c4c(c5c6ccccc6n2c5c31)C(=O)NC4 [staurosporine]
The experiment in a line: log2 fold change of tryptic peptide abundance, ligand vs vehicle (limited proteolysis) (log2 ratio); higher = more trypsin-susceptible (destabilized). The note with it: ligand concentration: 20 uM; sample: mouse liver crude lysate; replicate design: treated separately.
With “UniProt Q8BW72 (peptide sequence: ISMDVFVR, peptide start residue: 316)”, the log2 fold change came out at 0.167.
As for “UniProt Q8BWA8 (peptide sequence: TSDGWLEGVR, peptide start residue: 748)”, the log2 fold change is -0.459.
In the case of “UniProt Q8C1D8 (peptide sequence: WNVEMESSR, peptide start residue: 715)” it was 0.188; in that of “UniProt Q8C025 (peptide sequence: ALGEPLSAAQLR, peptide start residue: 16)”, 0.356.
In the case of “UniProt Q8C0L8 (peptide sequence: AAMPTPGSTAGFR, peptide start residue: 284)” it was 0.155; in that of “UniProt Q8BZQ7 (peptide sequence: QQLLVSLK, peptide start residue: 387)”, 0.55; in that of “UniProt Q8C4Y3 (peptide sequence: LVMADKELYR, peptide start residue: 130)”, 0.406.
As to “UniProt Q8C5W3 (peptide sequence: LEPLAEVDLRPQSSAK, peptide start residue: 330)”, the log2 fold change is -0.436.
Regarding “UniProt Q8C7R4 (peptide sequence: IWSQCVELAR, peptide start residue: 695)”, the log2 fold change is 0.299.
For the target “UniProt Q8BW70 (peptide sequence: QVGHQVLEAYAR, peptide start residue: 59)”, the log2 fold change is -0.261.
As to “UniProt Q8BYR1 (peptide sequence: IEETPELR, peptide start residue: 126)”, the log2 fold change is -0.294.
In the case of “UniProt Q8C0Z1 (peptide sequence: GSLGVDGDGVALLHVTR, peptide start residue: 257)”, the log2 fold change was 0.731.
As for “UniProt Q8C547 (peptide sequence: TGHSLALGCLHR, peptide start residue: 910)”, the log2 fold change amounted to 0.698.
In the case of “UniProt Q8C7E9 (peptide sequence: GQMQISDPRPPMPR, peptide start residue: 314)” it was 0.217; in that of “UniProt Q8BZK4 (peptide sequence: EKKSEEHVEDLTDVSVHLR, peptide start residue: 453)”, 0.323.
The same measure for “UniProt Q8C650 (peptide sequence: HEFYGER, peptide start residue: 326)”: -0.119; for “UniProt Q8BWQ6 (peptide sequence: SMDFIGMIK, peptide start residue: 444)”: 0.0909; for “UniProt Q8C6S9 (peptide sequence: SVIAVHQK, peptide start residue: 2990)”: -0.329.
The same measure for “UniProt Q8C0C7 (peptide sequence: THTTAASAR, peptide start residue: 326)”: 0.527; for “UniProt Q8C561 (peptide sequence: NMDDYEDFDEKR, peptide start residue: 286)”: -0.141.
With “UniProt Q8BYI6 (peptide sequence: NENAQTPLVGR, peptide start residue: 167)”, the log2 fold change was 0.171.
The same measure for “UniProt Q8C0Q2 (peptide sequence: KSTTPCMIPVK, peptide start residue: 6)”: 0.209; for “UniProt Q8C163 (peptide sequence: KLEELKAK, peptide start residue: 39)”: -0.224.
In the case of “UniProt Q8BZX4 (peptide sequence: EHSKESDATVSK, peptide start residue: 447)” it was 0.872; in that of “UniProt Q8C0T7 (peptide sequence: HTTEPIKSEGTLQGAATTSTAR, peptide start residue: 228)”, 0.759.
In the case of “UniProt Q8C753 (peptide sequence: KAVHTDFSR, peptide start residue: 86)” it was -0.592; in that of “UniProt Q8BZ47 (peptide sequence: KDEEPESVEGK, peptide start residue: 927)”, -0.521; in that of “UniProt Q8C525 (peptide sequence: SISVFINPDDVTRPHFR, peptide start residue: 406)”, 0.0833.
For “UniProt Q8BWU5 (peptide sequence: DIDCIAFTK, peptide start residue: 70)”, the log2 fold change worked out at 0.346.
For the target “UniProt Q8C3X2 (peptide sequence: RPVDITPLEQR, peptide start residue: 47)”, the log2 fold change was -0.156.
Turning to “UniProt Q8BX17 (peptide sequence: VYEAVELLK, peptide start residue: 990)”, the log2 fold change turned out to be 0.432.
